Measurements reported in PubChem BioAssay AID720505 (Drosophila RNAi Screening Center, 2013)
In all, the deposit lists about 20,000 reagents; below is a random part of those that have a named target and a result. Over the whole deposit, about 2,100 (10%) were called active. 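Raw plate signals without normalisation; calls rest on control-based scores that were not deposited; replicate 2 separates called from uncalled poorly.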 Entries without a mark were called inactive. The numbers tell different reagents against one gene apart. Reagent sequences are not shown. Not given: the amount of reagent, the time to read-out.

Aim: 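Knock-downs that reduce calcium influx once internal stores are emptied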 (primary screen)
Cell system: Drosophila S2R+ cells
Reagents: long dsRNA against Drosophila genes
Conditions: thapsigargin (2 µM) in calcium-free buffer to empty internal stores, then 2 mM calcium added back
Read-out: 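Stores emptied by 2 µM thapsigargin without calcium, then 2 mM calcium re-added; fluo-4 fluorescence followed by FLIPR in 384-well plates, per-well averaged endpoint, raw; two screen passes, some wells retested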
Scale: calcium signal: higher = more calcium entry after store depletion
Rule for the call: 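About 1500 genes called as lowering calcium entry, by varying amounts, judged against per-plate control wells with STIM1 as positive and Rho1 as negative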
Calls: active = called as lowering calcium entry; inactive = not called

For CG12880, the entry reads calcium signal, replicate 1 = 127; calcium signal, replicate 2 = 117. Against CG11409, the values are calcium signal, replicate 1 = 116; calcium signal, replicate 2 = 133. Depletion of CG7715 gave: calcium signal, replicate 1 = 150; calcium signal, replicate 2 = 165. CG34393 #1 showed calcium signal, replicate 1 = 97.7; calcium signal, replicate 2 = 149. With knock-down of CG34393 #2 the results were calcium signal, replicate 1 = 114; calcium signal, replicate 2 = 130. CG31804 gave calcium signal, replicate 1 = 109; calcium signal, replicate 2 = 183.

For CG2003, the values are calcium signal, replicate 1 = 85.3; calcium signal, replicate 2 = 138. Knock-down of CG42819 came out at: calcium signal, replicate 1 = 197; calcium signal, replicate 2 = 204. Against CG4168 #1, the values are calcium signal, replicate 1 = 66.4 (active); calcium signal, replicate 2 = 188. CG4168 #2 gave calcium signal, replicate 1 = 189; calcium signal, replicate 2 = 80.7. With knock-down of CG4168 #3, the screen gave calcium signal, replicate 1 = 132; calcium signal, replicate 2 = 127. Knock-down of CG4168 #4 resulted in: calcium signal, replicate 1 = 90.7; calcium signal, replicate 2 = 85.5.

Against CG4168 #5, the entry reads calcium signal, replicate 1 = 99.8; calcium signal, replicate 2 = 151.

Entries listed above marked active, once more:
CG4168 #1 | calcium signal, replicate 1 = 66.4 (active); calcium signal, replicate 2 = 188
